These are yes or no findings as the source states them, for the method shown. In cells and extracts the contact can be indirect. A result given as binding can be weak or reduced; the word gives no strength.

Sequences of proteins named here, by UniProt entry; tags and fusion partners are left off. A change or cut given only in a name is not applied to a line headed by its entry.
UniProt Q00987: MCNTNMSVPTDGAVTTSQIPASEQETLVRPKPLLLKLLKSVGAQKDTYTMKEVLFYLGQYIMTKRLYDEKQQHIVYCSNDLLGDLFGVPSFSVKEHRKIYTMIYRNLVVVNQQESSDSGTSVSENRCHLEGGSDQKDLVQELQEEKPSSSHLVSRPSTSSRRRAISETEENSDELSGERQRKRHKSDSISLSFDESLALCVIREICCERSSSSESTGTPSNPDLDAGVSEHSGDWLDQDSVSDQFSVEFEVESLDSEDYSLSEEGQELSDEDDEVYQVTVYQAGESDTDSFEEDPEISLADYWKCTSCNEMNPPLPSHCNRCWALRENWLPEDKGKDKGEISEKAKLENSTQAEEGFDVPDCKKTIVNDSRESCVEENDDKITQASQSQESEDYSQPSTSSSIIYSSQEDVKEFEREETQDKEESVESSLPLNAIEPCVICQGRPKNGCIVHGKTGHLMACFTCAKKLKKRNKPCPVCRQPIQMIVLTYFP
UniProt P49821: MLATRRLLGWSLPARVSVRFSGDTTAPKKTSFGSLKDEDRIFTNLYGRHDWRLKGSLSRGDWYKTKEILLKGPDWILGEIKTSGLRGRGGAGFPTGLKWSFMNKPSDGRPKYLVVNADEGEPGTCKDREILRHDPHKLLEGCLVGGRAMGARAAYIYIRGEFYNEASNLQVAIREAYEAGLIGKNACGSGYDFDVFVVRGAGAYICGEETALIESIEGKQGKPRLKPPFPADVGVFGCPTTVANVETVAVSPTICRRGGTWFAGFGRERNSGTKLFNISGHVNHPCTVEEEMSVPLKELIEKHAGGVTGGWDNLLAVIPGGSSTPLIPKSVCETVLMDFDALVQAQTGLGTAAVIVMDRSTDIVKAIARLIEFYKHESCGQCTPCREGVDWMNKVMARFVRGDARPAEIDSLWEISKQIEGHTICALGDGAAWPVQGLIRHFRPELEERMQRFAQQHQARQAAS

The target in experiment [1] is mouse double minute 2 (MDM2), exogenous, full length (human) (UniProt Q00987). Kind of experiment: co-IP; HEK293T cells in which a third protein is co-expressed as blocker (Myc-CYTL1 with 20 μM MG132 for 6 h; HA-CYTL1 or HA-ΔCYTL1; Flag-NDUFV1) against a control vector.
The target is the same in experiment [2]. As to the kind of experiment: co-IP; HEK293T cells co-transfected with both partners (exogenous, tagged or untagged); blots; protocol by reference 43.

In the case of “Flag-tagged NDUFV1, full length (from UniProt P49821)”, the binding result in experiment [1] and in experiment [2] was “binds” each time.

These data come from PMC8813937.
